No constants are given. Whether binding was seen depends on the method and setting. In cells and extracts the contact can be indirect. Some binding calls cover weakened binding; strength is not graded here. Where a sequence is shown, tags or fusion partners need not be part of it.
Key:
[1] = target: T1, Frizzled3-HA (Mus musculus (Mouse)) (UniProt Q61086); experiment: co-IP (IP: Flag, blot HA) and its quantification; both proteins in the same HEK293T cell
T1 sequence: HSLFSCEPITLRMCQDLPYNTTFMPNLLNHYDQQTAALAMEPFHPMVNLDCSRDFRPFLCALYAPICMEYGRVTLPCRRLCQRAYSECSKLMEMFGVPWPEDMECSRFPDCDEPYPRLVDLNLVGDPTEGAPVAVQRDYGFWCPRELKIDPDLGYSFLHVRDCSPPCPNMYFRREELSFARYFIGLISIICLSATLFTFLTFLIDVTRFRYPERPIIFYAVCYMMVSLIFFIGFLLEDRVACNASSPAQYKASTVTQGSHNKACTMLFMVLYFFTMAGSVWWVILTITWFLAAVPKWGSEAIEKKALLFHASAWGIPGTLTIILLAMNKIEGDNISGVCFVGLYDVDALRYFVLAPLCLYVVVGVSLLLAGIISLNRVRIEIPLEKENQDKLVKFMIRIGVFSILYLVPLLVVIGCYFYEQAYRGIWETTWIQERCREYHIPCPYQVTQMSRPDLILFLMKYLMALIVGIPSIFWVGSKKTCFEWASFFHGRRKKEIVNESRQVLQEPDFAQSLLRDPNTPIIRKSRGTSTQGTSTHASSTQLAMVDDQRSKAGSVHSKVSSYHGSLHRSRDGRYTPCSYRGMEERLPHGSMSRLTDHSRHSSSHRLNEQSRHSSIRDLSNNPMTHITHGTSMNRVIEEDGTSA

Chains of the proteins cited; added tags and fusions are not shown. Residues count along the entry.
UniProt Q91ZI0, residues 32-3301: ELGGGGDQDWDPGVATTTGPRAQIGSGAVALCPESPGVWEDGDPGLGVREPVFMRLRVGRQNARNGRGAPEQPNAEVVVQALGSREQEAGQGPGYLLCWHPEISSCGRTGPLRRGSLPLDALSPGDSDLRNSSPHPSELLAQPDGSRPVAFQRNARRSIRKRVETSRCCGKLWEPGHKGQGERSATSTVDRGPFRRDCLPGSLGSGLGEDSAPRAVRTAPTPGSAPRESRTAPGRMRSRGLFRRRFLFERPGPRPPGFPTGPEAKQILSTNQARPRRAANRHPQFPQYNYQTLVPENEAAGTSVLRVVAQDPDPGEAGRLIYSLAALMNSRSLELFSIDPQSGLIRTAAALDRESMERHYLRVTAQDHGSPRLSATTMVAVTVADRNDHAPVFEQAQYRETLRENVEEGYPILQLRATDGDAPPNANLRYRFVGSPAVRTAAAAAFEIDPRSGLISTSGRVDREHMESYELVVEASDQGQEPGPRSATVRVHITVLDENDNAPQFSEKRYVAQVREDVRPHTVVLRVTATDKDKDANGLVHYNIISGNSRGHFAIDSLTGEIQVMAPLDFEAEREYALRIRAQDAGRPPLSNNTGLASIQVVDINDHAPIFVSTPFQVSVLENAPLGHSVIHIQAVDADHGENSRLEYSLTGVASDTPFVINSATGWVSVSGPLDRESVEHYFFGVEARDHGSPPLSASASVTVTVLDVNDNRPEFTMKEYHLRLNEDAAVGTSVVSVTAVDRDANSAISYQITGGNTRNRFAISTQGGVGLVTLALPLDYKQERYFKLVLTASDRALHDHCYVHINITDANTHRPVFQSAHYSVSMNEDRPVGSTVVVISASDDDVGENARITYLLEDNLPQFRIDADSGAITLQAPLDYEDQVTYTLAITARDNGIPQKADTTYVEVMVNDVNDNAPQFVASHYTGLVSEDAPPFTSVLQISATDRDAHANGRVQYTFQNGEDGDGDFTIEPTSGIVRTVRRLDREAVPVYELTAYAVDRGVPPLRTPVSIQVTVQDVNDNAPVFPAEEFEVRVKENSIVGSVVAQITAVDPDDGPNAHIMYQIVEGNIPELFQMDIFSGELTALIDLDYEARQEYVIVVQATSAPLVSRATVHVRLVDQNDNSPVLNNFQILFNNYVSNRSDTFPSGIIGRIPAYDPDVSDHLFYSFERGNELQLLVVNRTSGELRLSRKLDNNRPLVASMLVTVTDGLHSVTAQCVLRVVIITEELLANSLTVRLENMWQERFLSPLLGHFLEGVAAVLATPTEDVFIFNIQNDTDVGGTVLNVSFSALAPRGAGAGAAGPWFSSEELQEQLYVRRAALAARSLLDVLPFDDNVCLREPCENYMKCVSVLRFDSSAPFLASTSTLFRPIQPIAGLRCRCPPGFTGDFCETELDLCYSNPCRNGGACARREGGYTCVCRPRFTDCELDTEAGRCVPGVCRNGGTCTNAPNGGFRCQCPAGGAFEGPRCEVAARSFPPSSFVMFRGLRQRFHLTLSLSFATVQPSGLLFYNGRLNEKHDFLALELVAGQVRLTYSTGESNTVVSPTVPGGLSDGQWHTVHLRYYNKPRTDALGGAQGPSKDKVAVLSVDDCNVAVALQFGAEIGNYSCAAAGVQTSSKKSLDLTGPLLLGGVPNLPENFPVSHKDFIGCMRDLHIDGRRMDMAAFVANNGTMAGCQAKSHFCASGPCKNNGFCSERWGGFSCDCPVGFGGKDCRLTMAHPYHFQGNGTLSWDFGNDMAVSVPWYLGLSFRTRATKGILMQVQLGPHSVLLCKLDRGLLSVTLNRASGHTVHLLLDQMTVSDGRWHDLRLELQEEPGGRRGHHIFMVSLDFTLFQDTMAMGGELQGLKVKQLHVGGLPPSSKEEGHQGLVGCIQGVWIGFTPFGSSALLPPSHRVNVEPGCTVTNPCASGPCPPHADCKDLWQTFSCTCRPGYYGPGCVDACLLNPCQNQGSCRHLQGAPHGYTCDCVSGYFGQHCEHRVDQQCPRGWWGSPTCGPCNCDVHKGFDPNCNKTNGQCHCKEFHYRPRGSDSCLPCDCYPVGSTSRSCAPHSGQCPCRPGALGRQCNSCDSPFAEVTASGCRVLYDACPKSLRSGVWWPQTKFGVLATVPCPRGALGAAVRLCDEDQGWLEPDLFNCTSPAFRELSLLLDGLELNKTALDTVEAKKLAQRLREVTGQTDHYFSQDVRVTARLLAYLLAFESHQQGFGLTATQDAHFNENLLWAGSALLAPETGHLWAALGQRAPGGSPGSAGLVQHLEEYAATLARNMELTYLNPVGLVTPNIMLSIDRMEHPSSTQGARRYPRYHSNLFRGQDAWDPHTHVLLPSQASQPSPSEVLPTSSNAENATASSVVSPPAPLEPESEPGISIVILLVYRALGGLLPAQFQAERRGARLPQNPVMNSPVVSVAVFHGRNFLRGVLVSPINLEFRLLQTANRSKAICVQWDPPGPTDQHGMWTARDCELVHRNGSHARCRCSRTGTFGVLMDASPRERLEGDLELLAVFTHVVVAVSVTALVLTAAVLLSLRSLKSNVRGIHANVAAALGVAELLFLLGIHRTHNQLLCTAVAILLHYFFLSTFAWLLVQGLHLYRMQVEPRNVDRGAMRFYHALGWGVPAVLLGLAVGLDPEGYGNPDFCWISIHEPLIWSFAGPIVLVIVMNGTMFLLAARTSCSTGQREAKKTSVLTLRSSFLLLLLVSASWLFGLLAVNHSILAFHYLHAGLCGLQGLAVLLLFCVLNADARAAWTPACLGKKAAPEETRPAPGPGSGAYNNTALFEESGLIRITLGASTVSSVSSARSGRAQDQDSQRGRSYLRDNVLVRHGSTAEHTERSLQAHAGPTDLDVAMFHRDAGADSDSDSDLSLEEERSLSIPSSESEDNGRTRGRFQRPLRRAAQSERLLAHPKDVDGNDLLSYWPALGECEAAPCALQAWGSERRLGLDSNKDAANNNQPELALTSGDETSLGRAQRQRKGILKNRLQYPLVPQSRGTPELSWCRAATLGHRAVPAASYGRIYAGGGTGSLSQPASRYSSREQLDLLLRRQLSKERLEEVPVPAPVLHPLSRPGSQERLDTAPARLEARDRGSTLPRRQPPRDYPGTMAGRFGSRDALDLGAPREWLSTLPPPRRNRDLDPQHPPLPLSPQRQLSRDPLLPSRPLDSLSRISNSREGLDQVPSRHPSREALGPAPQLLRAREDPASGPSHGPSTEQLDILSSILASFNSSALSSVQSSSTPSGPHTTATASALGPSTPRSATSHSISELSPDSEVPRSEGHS

[2] = target: T1, Frizzled3-HA (Mus musculus (Mouse)); experiment: co-IP of the intercellular complex (IP: Flag, blot HA); Frizzled3-HA and Celsr3-IRES in cell a, Celsr3-flag with or without Flag-Vangl2 in cell b, with or without Aβ oligomer
[3] = target: T1, Frizzled3-HA (Mus musculus (Mouse)); experiment: co-IP of the intercellular complex (IP: Flag, blot HA), quantified; Frizzled3-HA and Celsr3-IRES in cell a, Celsr3-flag with or without Flag-Vangl2 in cell b, with or without Aβ oligomer

Measured: binding

mouse Celsr3 (Celsr3-Flag) (from UniProt Q91ZI0 32-3301) (receptor)
binds: all assays above
